Measured values published in PubChem BioAssay AID2517 (National Center for Advancing Translational Sciences (NCATS), 2010).
Out of some 350,000 compounds screened, about 1,200 (0.34%) were called active. Inconclusive results, whose numbers are uncertain, are shown with a selection of clear calls. Calls come from the whole dose curve; as a rule, active = well fitted inhibition curve with a large enough effect; inconclusive = small, poorly fitted or top-dose-only effect; inactive = no such curve, though single readings can be large or run the other way. A potency beside an inconclusive call is a rough fit, not a confirmed value.

By UniProt entry, the sequences of proteins in these tests, tags left out.
UniProt P27695, whole entry, looked up: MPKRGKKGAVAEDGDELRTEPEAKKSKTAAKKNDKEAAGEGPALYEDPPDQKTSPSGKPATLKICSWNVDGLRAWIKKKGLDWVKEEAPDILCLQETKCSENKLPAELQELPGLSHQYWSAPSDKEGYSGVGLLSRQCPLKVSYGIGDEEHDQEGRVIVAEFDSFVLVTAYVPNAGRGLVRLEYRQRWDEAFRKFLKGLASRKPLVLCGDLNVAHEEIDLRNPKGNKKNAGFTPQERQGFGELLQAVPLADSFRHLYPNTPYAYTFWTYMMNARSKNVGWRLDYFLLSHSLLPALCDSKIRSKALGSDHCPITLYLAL

Molecular target: DNA repair nuclease/redox regulator APEX1 (Homo sapiens) (UniProt P27695)
Experiment: qHTS Assay for Inhibitors of the Human Apurinic/apyrimidinic Endonuclease 1 (APE1); note: nearly all actives have a fitted effect of over 55% in size;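 for activity change, negative = inhibition: plate controls were vehicle for no effect and reference inhibitor for full effect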
Conditions: recombinant APE1, TAMRA/BHQ-2 abasic DNA cleavage fluorescence; activity change, negative = inhibition: at 65.8 µM (top of the series)
Method in brief: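 Step 1: APE1 (0.75 nM) with compound, 15 min RT. Step 2: add 50 nM fluorophore/quencher THF duplex. Step 3: three fluorescence reads 60 s apart (525/598 nm); read 3 minus read 1 = reaction progress.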
Potency is the fitted concentration of half-maximal effect.

| SMILES | Potency | activity change, negative = inhibition |
| --- | --- | --- |
| CCOc1cccc(NC(=O)c2ccc(S(=O)(=O)N(C)C)cc2)c1 | inconclusive: 44.7 µM [inhibitor, single point] | – |
| O=C1C(=Cc2ccco2)C(=O)c2ccccc21 | inconclusive: 17.8 µM [inhibitor, partial curve] | – |
| COc1ccccc1Cn1c(-c2ccccc2OC)nc2ccccc21 | inconclusive: 3.16 µM [inhibitor, single point] | – |
| COc1ccc(C(=O)NC(=S)Nc2ccc(CN3CCOCC3)cc2)cc1 | inconclusive: 6.31 µM [inhibitor, single point] | – |
| CN(C)Cc1cc(O)c(CN(C)C)cc1O | inconclusive: 35.5 µM [inhibitor, single point] | – |
| COc1ccc(S(=O)(=O)Nc2ccc3cn[nH]c3c2)cc1C | inconclusive: 3.98 µM [inhibitor, single point] | – |
| CCOc1cc(C2C(C(C)=O)=C(O)C(=O)N2CCc2c[nH]c3ccccc23)ccc1O (stereo not drawn) | inconclusive: 31.6 µM [inhibitor, single point] | – |
| O=C1CC(c2ccc(O)c(O)c2)Oc2c1ccc(O)c2O (stereo not drawn) | active: 0.126 µM | – |
| CC(=O)N1CCN(CC(=O)Nc2cc([N+](=O)[O-])ccc2Cl)CC1 | inconclusive: 39.8 µM [inhibitor, single point] | – |
| COc1ccccc1Nc1nc(-c2c(C)nc3ncccn23)cs1 | – | inactive: 0.83% |
| C/C(CCC(=O)OC[C@@H]1O[C@H](C#Cc2ccccc2)C=C[C@@H]1Oc1ccc(C)cc1)=N/O[C@@H](C)c1cn([C@H]2COC[C@H]2O)nn1 | inconclusive: 3.55 µM [inhibitor, single point] | – |
| O=S(O)S(=O)(=O)O | inconclusive: 28.2 µM [inhibitor, partial curve] | – |
| CCCN1C(C)C(C(=O)OCC)=CN(Cc2cccc(I)c2)S1(=O)=O (stereo not drawn) | inconclusive: 8.44 µM [inhibitor, single point] | – |
| O=c1[nH]c2ccccc2n2c(-c3ccccc3)nnc12 | inconclusive: 39.8 µM [inhibitor, single point] | – |
| CC(=O)Nc1ccc(S(=O)(=O)NC2(C(F)(F)F)C(=O)NC(C)=C2C#N)cc1 (stereo not drawn) | inconclusive: 4.47 µM [inhibitor, partial curve, poor fit] | – |
| CC(Cc1ccccc1)C(=O)NCc1ccccn1 (stereo not drawn) | inconclusive: 3.16 µM [inhibitor, partial curve] | – |
| CCN(CC)C(=O)/C=C/c1ccc(OC)c(S(=O)(=O)N2CCCCC2)c1 | inconclusive: 15.8 µM [inhibitor, partial curve] | – |
| CC1CC(C)(C)NC(=S)N1CCC(=O)N1CCc2ccccc21 (stereo not drawn) | inconclusive: 3.55 µM [inhibitor, partial curve] | – |
| CN(CC(=O)Nc1ccccc1Br)C(=O)c1ccncc1 | – | inactive: 29.9% |
| Cc1csc(NC(=O)C2CC(=O)N(c3ccc4c(c3)OCCO4)C2)n1 (stereo not drawn) | – | inactive: 23.6% |
| Cc1ccc(S(=O)(=O)Nc2cccc(-c3ccc(N4CCCCCC4)nn3)c2)c(C)c1 | inconclusive: 37.7 µM [inhibitor, single point] | – |
| CC(=O)c1ccc2c(c1)C1C=CCC1C(C(=O)O)N2 (stereo not drawn) | inconclusive: 2.82 µM [inhibitor, single point] | – |

Two consecutive records from above, quoted:

| SMILES | Potency | activity change, negative = inhibition |
| --- | --- | --- |
| CN(CC(=O)Nc1ccccc1Br)C(=O)c1ccncc1 | – | inactive: 29.9% |
| Cc1csc(NC(=O)C2CC(=O)N(c3ccc4c(c3)OCCO4)C2)n1 (stereo not drawn) | – | inactive: 23.6% |

The listing continues:

| SMILES | Potency | activity change, negative = inhibition |
| --- | --- | --- |
| C=CCNC(=O)COC(=O)c1oc2ccccc2c1CSC1CCCCC1 | inconclusive: 39.8 µM [inhibitor, single point] | – |
| CCOc1ccccc1Oc1nc(-c2ccccc2O)nc2ccccc12 | – | inactive: 12.7% |
| O=C(N/N=C\c1ccc(Br)o1)C1COc2ccccc2O1 (stereo not drawn) | inconclusive: 11.2 µM [inhibitor, partial curve] | – |
| Brc1ccc(N=C(c2ccccc2)c2ccncc2)cc1 | inconclusive: 0.158 µM [inhibitor, full curve, poor fit] | – |
| O=C(NCc1nc2ccccc2[nH]1)C1=C[C@H](c2ccc(C(F)(F)F)cc2)C[C@H](OCc2ccc(CO)cc2)O1 | inconclusive: 12.6 µM [inhibitor, partial curve] | – |
| Cc1ccc(CNC(=O)CC(C)S(=O)(=O)c2ccc3c(c2)NC(=O)CO3)cc1 (stereo not drawn) | – | inactive: 22.7% |
| Cc1ccc(S(=O)(=O)c2cc3c(=O)n4cccc(C)c4nc3n(Cc3ccco3)c2=N)cc1C | inconclusive: 39.8 µM [inhibitor, single point] | – |
| O=c1[nH]c(=O)n(Cc2ccccc2)c2nc(-c3ccc(C(F)(F)F)cc3)n(CCO)c12 | – | inactive: 63.2% |
| COC(=O)/C(=C/Nc1ccccc1)[N+](=O)[O-] | inconclusive: 39.8 µM [inhibitor, single point] | – |
| O=C(NCCc1ccccc1)C(c1cccs1)N(C(=O)c1csnn1)C1CC1 (stereo not drawn) | – | inactive: 9.72% |
| CCC(=O)/C=C1/Sc2ccccc2N1CC | – | inactive: -6.27% |
| COc1ccc(/C=N/NC(=O)c2cc(Br)ccc2O)cc1Cn1cc(Cl)cn1 | inconclusive: 10 µM [inhibitor, partial curve] | – |
| COc1cccc(-n2c(COc3ccc(C)cc3)nnc2SCC(=O)O)c1 | inconclusive: 0.316 µM [inhibitor, full curve, poor fit] | – |
| COc1ccc(Cn2cccc(NC(=O)Nc3ccc(F)cc3)c2=O)cc1 | inconclusive: 39.8 µM [inhibitor, single point] | – |
| CCN1/C(=C/C=C/C=C/c2sc3ccccc3[n+]2CC)Sc2ccccc21 | inconclusive: 25.1 µM [inhibitor, partial curve] | – |
| C/C(=C\C=C(C#N)C#N)c1cc(C#N)c(N)o1 | inconclusive: 28.2 µM [inhibitor, partial curve] | – |
| COc1ccc(C2=NOC3(CC(=O)N(c4ccc5ccccc5c4)C3=O)C2)c(OC)c1 (stereo not drawn) | inconclusive: 31.6 µM [inhibitor, partial curve] | – |
| COc1ccc(NC(=O)Nc2nc3ccccc3s2)cc1 | inconclusive: 7.08 µM [inhibitor, single point] | – |
| Cc1cc(N2CCN(S(=O)(=O)c3ccc4ccccc4c3)CC2)n2ncnc2n1 | – | inactive: 10.1% |
| CC(=O)c1cn(CC(=O)Nc2ccc(C)cc2)c2ccccc12 | inconclusive: 44.7 µM [inhibitor, single point] | – |
| O=c1cc(O)c2c(=O)n(C3CCCCC3)c3ccccc3c2o1 | inconclusive: 28.2 µM [inhibitor, partial curve, poor fit] | – |
